Assay results published in patent US6025179.

System: SnaBI methylase (M.SnaBI) (Sphaerotilus natans)
Test: activity in cells
Settings: in vivo methylation completely protects pSnaBI-2 against SnaBI digestion; protein in cells; only the site is given

## GTACGTAC (double strand) [SnaBI linker in pSnaBI-2 (two sites in pUC19)]
  activity on this sequence: active

Construct, isoform or probe ends are uncertain for at least one entry.
